{"source": "PubChem BioAssay AID493014", "about": "(National Center for Advancing Translational Sciences (NCATS), 2011)", "note": "Screen size: about 340,000 compounds; about 170 (0.05%) were called active. This list was built around the results that the source calls inconclusive (neither active nor inactive); the mix of calls is not that of the screen. Calls come from the whole dose curve; as a rule, active = well fitted inhibition curve with a large enough effect in the signal ratio, with a control signal flat (not every such curve was filed as active); inconclusive = small, poorly fitted or top-dose-only effect, or effect the other way, or a change in a side signal; inactive = flat fitted curve, though single readings scatter; the % refers to the signal ratio. A potency beside an inconclusive call is a rough fit, not a confirmed value. Potency is the fitted concentration of half-maximal effect.", "data": [{"assay": "qHTS Assay to Find Inhibitors of Chronic Active B-Cell Receptor Signaling;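 for activity change, negative = inhibition: plate controls were basal doxycycline-induced cells for no effect and cells given 10 µM MG132 for full effect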", "details": "ABC-DLBCL IkBa-CBG/CBR reporter, luminescence ratio (green luciferase fused to IkBa over red control in TMD8 lymphoma cells), 4 h; activity change, negative = inhibition: at 46.1 µM (top of the series)", "in_short": "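Doxycycline induced both beetle luciferases in TMD8 lymphoma cells; IKK-driven degradation limits the IkappaBalpha-fused green signal, while red luminescence normalises for cell number and nonspecific effects. Compounds tested up to 46 uM, 4 hrs.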", "values": [{"smiles": "CN(c1ccccc1C(=O)O)S(=O)(=O)c1ccc2[nH]c(=O)oc2c1", "activity change, negative = inhibition": "inactive: 3.98%"}, {"smiles": "O=c1cc(CSc2nc3ccccc3[nH]2)c2ccccc2[nH]1", "Potency": "inconclusive: 29.1 µM [falling, partial curve, poor fit]"}, {"smiles": "Cc1ccc(C2(C)NC(=O)N(CC(=O)N3CCN(S(=O)(=O)c4cccc(F)c4)CC3)C2=O)cc1", "note": "(centres undefined)", "activity change, negative = inhibition": "inconclusive: 10.4%"}, {"smiles": "CCCc1nnc2n1N=C(c1ccc(OC)c(OC)c1)CS2", "Potency": "active: 13 µM"}, {"smiles": "CC(C)(C)OC(=O)CNC(=O)c1[nH]cnc1C(=O)N[C@@H](Cc1ccccc1)C(=O)OC(C)(C)C", "activity change, negative = inhibition": "inactive: 0.764%"}, {"smiles": "CCc1cccc(C)c1NC(=O)CN(C)S(=O)(=O)c1ccc(-c2ccc(=O)[nH]n2)s1", "activity change, negative = inhibition": "inactive: -16.3%"}, {"smiles": "CCS(=O)(=O)c1ncc(Cl)c(C(=O)NCc2ccc(OC)cc2)n1", "Potency": "inconclusive: 35.5 µM [cytotoxic, single point]"}, {"smiles": "Cc1ccc(O)c(C=Nc2cc(C)ccc2O)c1", "activity change, negative = inhibition": "inconclusive: 2.13%"}, {"smiles": "COc1ccc(C(=O)NCCc2c[nH]c3ccccc23)cc1S(=O)(=O)N1CCCCC1C", "note": "(centres undefined)", "activity change, negative = inhibition": "inconclusive: -10.7%"}, {"smiles": "COc1cc2c(cc1OC)C(C(=O)N1CCCC1)C(c1ccccc1F)N(C)C2=O", "note": "(centres undefined)", "activity change, negative = inhibition": "inconclusive: -5.06%"}, {"smiles": "N#CCC(=O)N/N=C\\c1cccc(OC/C=C/c2ccccc2)c1", "Potency": "inconclusive: 22.4 µM [falling, partial curve]"}, {"smiles": "Cc1cccc(-c2noc(CN(C(=O)c3ccc(Br)o3)C(C)C)n2)c1", "activity change, negative = inhibition": "inconclusive: -1.2%"}, {"smiles": "CC(C)CCn1c(Sc2nc3ccccc3s2)nc2c1c(=O)[nH]c(=O)n2C", "activity change, negative = inhibition": "inconclusive: -23.3%"}, {"smiles": "C=CCn1c(SCc2ccc3nonc3c2)nnc1-c1cccs1", "activity change, negative = inhibition": "inconclusive: 0.0994%"}, {"smiles": "O=S(=O)(NC12CC3CC(CC(C3)C1)C2)c1ccc(F)cc1", "Potency": "inconclusive: 32.6 µM [rising, single point]"}, {"smiles": "Cc1ccccc1C(=O)NC(=S)NCCC1=CCCCC1", "Potency": "inconclusive: 3.16 µM [falling, partial curve, poor fit]"}, {"smiles": "Nc1cc(S(=O)(=O)c2ccc(O)c(N)c2)ccc1O", "activity change, negative = inhibition": "inconclusive: -1.86%"}, {"smiles": "Nc1n[nH]c2c1C1(CCCCC1)Cc1ccccc1-2", "activity change, negative = inhibition": "inconclusive: -0.932%"}, {"smiles": "C(=N\\Nc1nc2ccccc2[nH]1)/c1c[nH]c2ccccc12", "Potency": "inconclusive: 5.8 µM [cytotoxic, partial curve]"}, {"smiles": "Cc1cc(C)cc(OCC(=O)O/N=C(\\N)Cc2ccc([N+](=O)[O-])cc2)c1", "Potency": "inconclusive: 11.2 µM [rising, partial curve, poor fit]"}, {"smiles": "COc1ccc(C(CNC(=O)c2ccc(-c3ccccc3)cc2)N(C)C)cc1OC", "note": "(centres undefined)", "activity change, negative = inhibition": "inactive: -1.96%"}, {"smiles": "CC(C)[C@H](NC(=O)N1CCn2c1nc1ccccc12)C(=O)N[C@H](Cc1ccccc1)C(=O)O", "activity change, negative = inhibition": "inconclusive: -29.7%"}, {"smiles": "CC1=NN(c2ccc(C(=O)O)c(N)c2)C(=O)C1", "Potency": "inconclusive: 31.6 µM [falling, partial curve]"}, {"smiles": "CC(=O)N(c1nnc(-c2cccc(C)c2)s1)C1CCCC1", "activity change, negative = inhibition": "inconclusive: -6.43%"}, {"smiles": "Cc1ccc(C(=O)N(CCC2=CCCCC2)c2c(N)n(Cc3ccccc3)c(=O)[nH]c2=O)o1", "Potency": "inconclusive: 23.1 µM [falling, single point]"}, {"smiles": "CCOc1ncccc1C(=O)OCC(=O)c1ccc(OC)c(OC)c1", "Potency": "inconclusive: 25.1 µM [falling, partial curve]"}, {"smiles": "Cc1c(C(=O)N(C)Cc2ccccc2)oc2c(Cl)cccc12", "activity change, negative = inhibition": "inconclusive: 8.77%"}, {"smiles": "CCOC(=O)N1CCN(Cc2ccc(O)c3ncccc23)CC1", "activity change, negative = inhibition": "inconclusive: 2.07%"}, {"smiles": "O=C(Nc1cccnc1)c1ccc(Cl)c(S(=O)(=O)N2CCCCCC2)c1", "activity change, negative = inhibition": "inconclusive: 0%"}, {"smiles": "CCn1ncc(C2=NOC(C(=O)NCC(C)C)C2)c1C", "note": "(centres undefined)", "activity change, negative = inhibition": "inconclusive: -4.5%"}, {"smiles": "Cc1csc(CNC(=O)CC2C(=O)NCCN2Cc2ccc(F)cc2Cl)n1", "note": "(centres undefined)", "activity change, negative = inhibition": "inconclusive: 0.282%"}, {"smiles": "Cc1ccc(C(=O)NCCc2nnc3c(C(F)(F)F)cc(Cl)cn23)o1", "activity change, negative = inhibition": "inactive: -0.62%"}, {"smiles": "COc1ccc2c(c1)[C@@H]1[C@H](CO2)[C@H](c2ccccc2)[C@]2(C)C(=O)Nc3ccc(C)cc3C(=O)N12", "activity change, negative = inhibition": "inactive: 0.209%"}, {"smiles": "Nc1ncnc(NCc2ccccc2)c1[N+](=O)[O-]", "activity change, negative = inhibition": "inconclusive: -1.81%"}, {"smiles": "Nc1ccc(C(=O)N2N=C(c3ccc(F)cc3)CC2(O)C(F)(F)F)cc1", "note": "(centres undefined)", "Potency": "inconclusive: 17.8 µM [falling, partial curve, poor fit]"}, {"smiles": "Cn1c(C(=O)NCCN2CCN(c3ccccc3F)CC2)cc2c(=O)n(C)c3ccccc3c21", "activity change, negative = inhibition": "inactive: 0.239%"}, {"smiles": "COc1cc(OC)c2c(-c3ccccc3)cc(=O)oc2c1C(CC(=O)N1CCN(c2ccccc2)CC1)c1ccc2c(c1)OCO2", "note": "(centres undefined)", "activity change, negative = inhibition": "inconclusive: 7.58%"}, {"smiles": "Cc1cc(OCc2nc(-c3cccs3)no2)cc(C)c1Cl", "Potency": "inconclusive: 1.64 µM [rising, partial curve, poor fit]"}, {"smiles": "CCCCn1c(N)c(N(CCC(C)C)C(=O)C2CC(=O)N(c3ccc(OC)cc3OC)C2)c(=O)[nH]c1=O", "note": "(centres undefined)", "activity change, negative = inhibition": "inactive: 3.01%"}, {"smiles": "CCCn1cc(NC(=O)C2CC(c3cccc(Br)c3)=NO2)cn1", "note": "(centres undefined)", "activity change, negative = inhibition": "inconclusive: -3.9%"}, {"smiles": "CCc1ccc(NC(=O)CSC2=C(C#N)C(c3ccco3)C3=C(CCCC3=O)N2)cc1", "note": "(centres undefined)", "activity change, negative = inhibition": "inconclusive: 0.78%"}, {"smiles": "COc1cccc(Nc2ncnc3ccccc23)c1", "Potency": "inconclusive: 16.4 µM [falling, partial curve]"}, {"smiles": "CN(C(=O)c1ccccc1Cl)C1CCCCC1", "activity change, negative = inhibition": "inconclusive: 1.85%"}, {"smiles": "COc1ccc(Cl)cc1NC(=O)Cn1nnc(C(=O)NCCc2ccc(OC)c(OC)c2)c1N", "activity change, negative = inhibition": "inconclusive: -17.1%"}, {"smiles": "CCOC(=O)C(NC(C)=O)(Nc1ccc(S(=O)(=O)Nc2cc(C)on2)cc1)C(F)(F)F", "note": "(centres undefined)", "Potency": "inconclusive: 8.2 µM [falling, partial curve, poor fit]"}, {"smiles": "Cc1ccc(N2C(=O)C3C4C=CC(C4)C3C2=O)cc1", "note": "(centres undefined)", "activity change, negative = inhibition": "inconclusive: 6.93%"}, {"smiles": "CCN1C(=O)/C(=C2\\SC(=S)N(CCCOC)C2=O)c2ccccc21", "activity change, negative = inhibition": "inconclusive: 0.633%"}, {"smiles": "CCc1nnc(NC(=O)c2ccc3c(c2)C(=O)N(C(C)(C)C)C3=O)s1", "activity change, negative = inhibition": "inactive: 0.577%"}, {"smiles": "O=C(CN1CCCCCC1)N/N=C/c1ccc(Cl)c(Cl)c1", "activity change, negative = inhibition": "inconclusive: 1.82%"}, {"smiles": "Cc1c(Cl)cccc1NC(=O)NC1CCCCC1", "activity change, negative = inhibition": "inconclusive: -0.518%"}, {"smiles": "O=C(Nc1ccccc1)Nc1nccs1", "activity change, negative = inhibition": "inconclusive: -13.2%"}, {"smiles": "Cc1n[nH]c(=O)n1-c1ccc(Oc2ccccc2)cc1", "activity change, negative = inhibition": "inconclusive: 6.58%"}, {"smiles": "CC(C)[C@H](NC(=O)Nc1cccc(C(F)(F)F)c1)C(=O)O", "activity change, negative = inhibition": "inactive: 0.552%"}, {"smiles": "O=C(CSc1nnc(CNC(=O)c2c(F)cccc2F)o1)NCc1ccccc1Cl", "activity change, negative = inhibition": "inconclusive: -13.5%"}, {"smiles": "O=C(Nc1ccc(S(=O)(=O)Nc2ncccn2)cc1)C1CC(=O)N(c2ccc(Cl)cc2)C1", "note": "(centres undefined)", "activity change, negative = inhibition": "inactive: 3.97%"}, {"smiles": "O=C1c2cccc(OCC(=O)N3CCCc4ccccc43)c2CCN1Cc1cccnc1", "activity change, negative = inhibition": "inconclusive: -19.8%"}, {"smiles": "c1ccc(-c2nc(NCCCn3ccnc3)c3oc4ccccc4c3n2)cc1", "activity change, negative = inhibition": "inconclusive: 17.5%"}, {"smiles": "O=C(CSc1nc(-c2ccccc2)cc(=O)[nH]1)N1CCc2ccccc21", "activity change, negative = inhibition": "inactive: -10.5%"}, {"smiles": "COc1ccc(-c2c(C#N)sc(C(N)=O)c2-c2ccc(OC)cc2)cc1", "activity change, negative = inhibition": "inconclusive: 19.7%"}, {"smiles": "Cc1cccc(OCC(=O)N(Cc2ccc(N(C)C)cc2)C2CCS(=O)(=O)C2)c1", "note": "(centres undefined)", "Potency": "inconclusive: 22.4 µM [falling, partial curve, poor fit]"}, {"smiles": "O=C(CSc1ncnc2c1oc1ccccc12)N1CCCc2ccccc21", "activity change, negative = inhibition": "inconclusive: 5.01%"}, {"smiles": "COCCN(C(=O)COC(=O)c1c(-c2ccccc2)noc1C)c1c(N)n(Cc2ccccc2)c(=O)[nH]c1=O", "activity change, negative = inhibition": "inconclusive: 0.0895%"}, {"smiles": "CCC(C)(C)NC(=O)c1ccc(Sc2nncn2C)c([N+](=O)[O-])c1", "activity change, negative = inhibition": "inactive: -1.89%"}, {"smiles": "CCOC(=O)c1sc2nc(CC(=O)OC)nc(NCCN(CC)CC)c2c1C", "activity change, negative = inhibition": "inconclusive: 16.2%"}, {"smiles": "CC(C)Cc1cc(C(=O)Nc2ccc3c(c2)OCO3)no1", "Potency": "inconclusive: 20.6 µM [falling, partial curve, poor fit]"}, {"smiles": "O=C(Nc1ccccc1)Nc1ccc2nnsc2c1", "activity change, negative = inhibition": "inconclusive: -27.2%"}, {"smiles": "COc1ccc(C2CC(c3ccccc3)=NN2C(=O)COC(=O)c2cccc(N)c2)cc1", "note": "(centres undefined)", "activity change, negative = inhibition": "inconclusive: -8.02%"}, {"smiles": "Cc1nc(/N=C(\\N)NC(=O)NC2CCCCC2)nc2ccccc12", "activity change, negative = inhibition": "inconclusive: 0.926%"}, {"smiles": "Cc1ccc(C(=O)Cn2c(=N)n(N)c3ccccc32)cc1", "activity change, negative = inhibition": "inconclusive: -16.9%"}, {"smiles": "N#CNC(=Nc1ccccc1F)SCc1ccc(C(=O)O)cc1", "activity change, negative = inhibition": "inconclusive: -6.71%"}, {"smiles": "O=C(CCSc1ccccc1)Nc1nc2c(s1)CCCC2", "Potency": "inconclusive: 0.461 µM [rising, full curve, poor fit]"}, {"smiles": "CC1=CC(C)(C)N2C(=O)C3(NCCc4c3[nH]c3ccccc43)c3cc(C)cc1c32", "note": "(centres undefined)", "activity change, negative = inhibition": "inconclusive: 6.42%"}, {"smiles": "Cc1cc(-c2ccc([N+](=O)[O-])cc2)nc2ccccc12", "activity change, negative = inhibition": "inconclusive: 4.62%"}, {"smiles": "CC(C)NC(=O)CC1OC(=O)c2ccccc21", "note": "(centres undefined)", "activity change, negative = inhibition": "inconclusive: 6.1%"}, {"smiles": "CCCCCCNc1c(C(=O)OCC)c(=O)[nH]c2ccccc12", "activity change, negative = inhibition": "inconclusive: -9.98%"}, {"smiles": "CCCCOc1ncnc2c1[nH]c1ccc(C)cc12", "Potency": "inconclusive: 0.178 µM [rising, full curve, poor fit]"}, {"smiles": "COc1cccc(NC(=O)CNC(=O)c2ccc([N+](=O)[O-])cc2)c1", "activity change, negative = inhibition": "inconclusive: -9.29%"}, {"smiles": "O=C(COc1ccc([N+](=O)[O-])cc1)N/N=C/c1ccccn1", "activity change, negative = inhibition": "inconclusive: 12.1%"}, {"smiles": "O=C(c1cccc(C(F)(F)F)c1)C1CCCN(C(=O)CN2CCOC2=O)C1", "note": "(centres undefined)", "activity change, negative = inhibition": "inconclusive: 0.901%"}]}]}
